Measurements: patent publication US9878984B2, “Anti-cancer compounds” (NORTHWESTERN UNIVERSITY, priority 2008, dated 2018)
“Also recorded” adds a separate entry of the source. Some compounds share one wording; it may come from a single statement.

Test system: HeLa cells
Test: Subcellular compound localization by epifluorescence microscopy
Format: cell-based, human
Settings: HeLa cells treated with [GI99%] for 20 hr

| SMILES | subcellular localization |
| --- | --- |
| CN(C)CCN1C(=O)c2cccc3cc(N)cc(c23)C1=O [amonafide, reference compound] | preferentially localizing to the nucleolus over the nucleoplasm |
| C=CCNc1ccc2c3c(cccc13)C(=O)N(CCN(C)C)C2=O [A3, 6-allylamino-2-[2-(dimethylamino)ethyl]-1H-benz[de]isoquinoline-1,3(2H)-dione] | preferentially localizing to the nucleolus over the nucleoplasm |
| CN(C)CCN1C(=O)c2cccc3c(N)ccc(c23)C1=O [A1, 6-amino-2-[2-(dimethylamino)ethyl]-1H-benz[de]isoquinoline-1,3(2H)-dione] | near identical to amonafide |
| COCCNc1ccc2c3c(cccc13)C(=O)N(CCN(C)C)C2=O [A4, 6-methoxyethylamino-2-[2-(dimethylamino)ethyl]-1H-benz[de]isoquinoline-1,3(2H)-dione] | preferentially localizing to the nucleolus over the nucleoplasm; also recorded: near identical sub-cellular localization to amonafide |
